PubChem BioAssay AID493014 (National Center for Advancing Translational Sciences (NCATS), 2011)
Some of the results follow. Further columns of the screen follow, without active or inactive calls. Most of these compounds were active or inconclusive in the main read-out, so they are no random draw. Words in brackets tell the shape of the fitted curve; partial curves, single points and poor fits give uncertain potencies.

Assay: qHTS Assay to Find Inhibitors of Chronic Active B-Cell Receptor Signaling
Conditions: ABC-DLBCL IkBa-CBG/CBR reporter, luminescence ratio (green luciferase fused to IkBa over red control in TMD8 lymphoma cells), 4 h
Outline: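 TMD8 ABC-DLBCL cells carrying doxycycline-inducible green luciferase fused to IkappaBalpha plus unfused red luciferase were exposed to compounds (up to 46 uM) for 4 hrs at 37C. Activity came from the overlap-corrected green/red luminescence ratio.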

[1] = measured here: CBR red luminescence, cell number
[2] = measured here: IkBa-CBG green luminescence

| SMILES | AC50 [1] | AC50 [2] |
| --- | --- | --- |
| COc1ccc(Nc2nc(C)cc(C)c2C(N)=O)cc1 | 16.4 µM [rising, partial curve, poor fit] |  |
| CC(=O)N1CCN(c2ccc(NC(=O)c3ccc(Cl)c([N+](=O)[O-])c3)cc2)CC1 | 3.16 µM [rising, partial curve, poor fit] |  |
| Cc1cc(C(=O)Nc2ccc(Br)cn2)sc1C | 16.4 µM [falling, single point] |  |
| Nc1cccc2cc(-c3ccccc3)oc12 | 13 µM [rising, partial curve, poor fit] |  |
| O=C(NNC(=S)NC(=O)c1cccs1)c1ccc(O)cc1 | 1.12 µM [falling, partial curve, poor fit] |  |
| CN(C)S(=O)(=O)c1ccc(C(=O)NCc2nc3ccccc3s2)cc1 | 17.8 µM [rising, partial curve, poor fit] |  |
| O=C(Nc1ccccc1)c1ccc2c(c1)OCO2 | 10.3 µM [falling, partial curve] |  |
| COc1ccc(CNc2n[nH]c(NCc3ccc(OC)c(OC)c3)n2)cc1OC | 23.1 µM [rising, single point] |  |
| Cc1ccc2nc(N/C(=N/S(=O)(=O)c3ccc(F)cc3F)c3ccccc3)sc2c1 | 5.01 µM [falling, partial curve, poor fit] |  |
| COc1ccc(C(=O)N/N=C/c2c(CO)cnc(C)c2O)cc1 | 14.1 µM [falling, single point] |  |
| O=C(c1ccc(-n2cccc2)cc1)N1CCN(Cc2ccccc2)CC1 | 28.2 µM [falling, partial curve, poor fit] |  |
| CCCC(=O)OCCNc1cc(SCc2ccco2)c2nonc2c1[N+](=O)[O-] |  | 32.6 µM [falling, partial curve, poor fit] |
| O=C(CSc1nnc(-c2ccc(O)cc2)o1)Nc1cccc(O)c1 | 7.94 µM [falling, partial curve] |  |
| CC1(S(=O)(=O)O)CC(=O)c2ccccc2C1=O (configuration not stated) | 5.62 µM [falling, full curve] | 35.5 µM [rising, partial curve, poor fit] |
| Cc1ccc(/C=C/C(=O)Nc2cccc3ncccc23)o1 | 7.31 µM [falling, partial curve, poor fit] |  |
| O=[N+]([O-])c1cccc2ccc(/C=C/c3cccc(Br)c3)nc12 | 2.06 µM [rising, full curve, poor fit] |  |
| O=C(c1c(O)c2ccccc2oc1=O)C1CCC1 | 10 µM [falling, partial curve] |  |
| Nc1nnnn1/N=C/c1ccco1 | 1.03 µM [falling, full curve, poor fit] | 2.91 µM [rising, full curve, poor fit] |
| Cc1cc(C)cc(C(=O)/C=C2\NC(=O)CS2)c1 | 17.8 µM [falling, partial curve] |  |
| CCNC(=S)Nc1nc2c(cc1C(=O)OCC)CCCC2 | 13 µM [rising, partial curve, poor fit] |  |
| O=C(O)c1cccc(NC(=O)C2C3C=CC(C3)C2C(=O)O)c1 (configuration not stated) | 14.1 µM [rising, single point] |  |

Looked up above.
Entry for CCCC(=O)OCCNc1cc(SCc2ccco2)c2nonc2c1[N+](=O)[O-] under AC50 [2]: 32.6 µM [falling, partial curve, poor fit]
Entry for COc1ccc(CNc2n[nH]c(NCc3ccc(OC)c(OC)c3)n2)cc1OC under AC50 [1]: 23.1 µM [rising, single point]
Entry for O=C(O)c1cccc(NC(=O)C2C3C=CC(C3)C2C(=O)O)c1 (configuration not stated) under AC50 [1]: 14.1 µM [rising, single point]
Entry for CN(C)S(=O)(=O)c1ccc(C(=O)NCc2nc3ccccc3s2)cc1 under AC50 [1]: 17.8 µM [rising, partial curve, poor fit]

Further compounds follow:

| SMILES | AC50 [1] | AC50 [2] |
| --- | --- | --- |
| COc1ccc(C(=O)Nc2cnc(NC(=O)c3cccs3)cc2C)cc1 | 3.98 µM [falling, partial curve, poor fit] |  |
| COc1ccc(OC)c(-c2csc(NC(=O)CSCC(=O)Nc3cc(C)on3)n2)c1 | 16.4 µM [falling, single point] |  |
| Cn1cc(CNCc2cn(C)nc2-c2ccc(C3CCCCC3)cc2)cn1 | 35.5 µM [falling, single point] |  |
| N/C(=N\OC(=O)c1ccc2c(c1)OCO2)c1cccnc1 | 20 µM [falling, single point] |  |
| CC(C)CNC(=S)NNC(=O)c1ccc2c(c1)OCO2 | 14.6 µM [falling, single point] |  |
| CCCCN(C(=O)c1ccc(S(=O)(=O)N2CCC(C)CC2)cc1)C1CCS(=O)(=O)C1 (configuration not stated) | 8.2 µM [falling, partial curve, poor fit] |  |
| CNC(=S)N/N=C/c1c(C)nn(-c2ccccc2)c1Cl | 0.326 µM [falling, full curve, poor fit] |  |
| Cc1nnc(NC(=O)c2ccc3c(c2)C(=O)N(CCC(C)C)C3=O)s1 | 6.51 µM [falling, single point] |  |
| CCOC(=O)C(NC(=O)N(C)C)(Nc1sc(C)c(CC)c1C#N)C(F)(F)F (configuration not stated) | 25.9 µM [rising, single point] | 7.31 µM [falling, partial curve] |
| O=C(C1CCN(S(=O)(=O)c2cccc3nsnc23)CC1)N1CCCc2ccccc21 | 11.2 µM [falling, partial curve] |  |
| C[C@]12CC[C@H]3[C@@H](CCC4=CC(=O)CC[C@@]43C)[C@@H]1CC[C@@H]2C(=O)CO | 0.00411 µM [rising, full curve, poor fit] |  |
| NCCNC(=O)Cc1ccc(NC(=O)Cc2ccc(Nc3ncnc4c3ncn4[C@@H]3O[C@H](CO)[C@@H](O)[C@H]3O)cc2)cc1 | 0.164 µM [rising, full curve, poor fit] | 1.16 µM [falling, full curve] |
| Cc1ccc(OCCNCc2ccccc2)c(C)c1 | 3.55 µM [rising, partial curve, poor fit] |  |
| CC1CCCCC1N(C)C1CCN(C(=O)CNC(=O)/C=C/c2cccc(Cl)c2)CC1 (configuration not stated) | 6.31 µM [falling, single point] |  |
| O=C(N/N=C/c1cn(-c2ccccc2)nc1-c1cc2ccccc2o1)c1ccncc1 | 0.146 µM [rising, full curve] |  |
| O=C(O)c1cc(-c2ccc3c(c2)OCO3)nc2ccc(Br)cc12 | 10 µM [falling, partial curve] |  |
| COc1c(C)cccc1C(=O)NC(=S)Nc1cccc2nsnc12 | 8.91 µM [falling, partial curve, poor fit] |  |
| COCCN(CC(=O)NCc1ccc(F)cc1)C(=O)CCC(=O)Nc1nccs1 | 3.26 µM [falling, full curve, poor fit] |  |
| COc1ccc(N2CCN(C(=O)CNC(=O)c3cn(-c4ccccc4OC)c(=O)c4ccccc34)CC2)cc1 | 0.112 µM [falling, full curve, poor fit] |  |
| CC(C)Sc1oc(-c2ccco2)nc1S(=O)(=O)c1ccc(F)cc1 |  | 23.1 µM [rising, partial curve, poor fit] |
| N/C(=N\OC(=O)/C=C/c1ccccc1)c1ccccc1 | 10.3 µM [falling, partial curve, poor fit] |  |

| SMILES | AC50 [1] | AC50 [2] |
| --- | --- | --- |
| O=C(NCc1cccc(C(F)(F)F)c1)N1CCN(C(=O)c2ccccc2)CC1 | 23.1 µM [rising, partial curve] |  |
| Cn1cc(CN2CCC(CO)(CCCc3ccccc3)CC2)c(-c2ccccc2)n1 | 5.01 µM [falling, single point] |  |
| O=C(Nc1cccnc1)c1coc(=O)c2ccccc12 |  | 20.6 µM [falling, single point] |
| O=C(O)[C@H]1CCCN1S(=O)(=O)c1cccc2cccnc12 | 29.1 µM [rising, single point] |  |
| Cc1ccccc1-n1c(-c2ccc3ccccc3n2)n[nH]c1=S | 3.16 µM [falling, full curve] |  |
| Cc1ccc(CNS(=O)(=O)c2c(C)[nH]c(=O)[nH]c2=O)cc1 | 0.1 µM [rising, full curve, poor fit] |  |
| Cc1cccc(-c2noc(Cc3ccc(Cl)cc3)n2)c1 | 23.1 µM [rising, single point] |  |
| COc1cc(C(c2c(C)[nH][nH]c2=O)c2c(C)[nH][nH]c2=O)ccc1OC(C)C | 7.31 µM [falling, partial curve] |  |
| CN(C)c1ccc(/C=c2\sc3n(c2=O)CCCN=3)cc1 | 2.31 µM [falling, full curve] |  |
| CC(C)OC(=O)c1cc2c(ccn2C)n1CC(=O)N(Cc1ccccc1)c1ccc(F)cc1 | 16.4 µM [falling, partial curve, poor fit] |  |
| CNC(=O)c1sc(-c2ccccc2)nc1C | 11.6 µM [rising, partial curve, poor fit] |  |
| O=C(Nc1nc2c(s1)C(=O)CCC2)c1ccccc1 | 3.98 µM [falling, full curve] |  |
| O=C1NC(=Nc2ccc(O)cc2)S/C1=C\C=C\c1ccco1 | 35.5 µM [rising, single point] | 7.08 µM [falling, partial curve] |
| O=C1N/C(=C/c2ccc(N3CCOCC3)cc2)C(=O)N1Cc1ccc(F)cc1 | 28.2 µM [falling, single point] |  |
| COc1ccc(S(=O)(=O)N2CCOC23CCN(C(=O)c2c(F)cccc2Cl)CC3)cc1 | 5.62 µM [rising, single point] |  |
| Cc1ccc(NC(=O)c2sc3nc(C)cc(C)c3c2N)cc1 | 17.8 µM [falling, partial curve, poor fit] |  |
| O=C(NCCN1CCCC1=O)C1CCC(=O)N(CCc2cccc(F)c2)C1 (configuration not stated) | 20 µM [falling, single point] |  |
| O=[N+]([O-])c1ccc2nc(SCc3ccccc3Cl)sc2c1 | 10 µM [rising, single point] |  |
| O=C(Nc1cccc(C(F)(F)F)c1)c1cccnn1 | 7.94 µM [rising, full curve, poor fit] |  |
| Cc1onc(-c2ccccc2)c1C(=O)NC(=S)NNC(=O)c1cccnc1 | 29.1 µM [falling, partial curve, poor fit] |  |
